Test results from patent publication US20230212225A1, “PEPTIDE COMPOSTIONS AND METHODS FOR TREATING TAUOPATHIES” (AXOLTIS PHARMA, priority 2019, published 2023).
Part of at least one peptide drawing is inferred or uncertain, most often the ends. Where a SMILES comes first, the peptide text is derived from it. Bridges are numbered along the chain shown (N, C = ends).

Test system: Aβ25-35-induced short-term memory deficits
Assay: Long-term study (120 days): weekly Y-maze, NX218 and/or DPZ based treatments
Type: in vivo, mice
Conditions: for Y-maze (D08) % / Y-maze (D15) % / Y-maze (D22) % / Y-maze (D29) % / Y-maze (D36) % / Y-maze (D43) % / Y-maze (D50) % / Y-maze (D57) % / Y-maze (D64) % / Y-maze (D71) % / Y-maze (D78) % / Y-maze (D85) % / Y-maze (D92) % / Y-maze (D99) % / Y-maze (D106) % / Y-maze (D113) % / Y-maze (D120) %: Group 1 = 100; for Y-maze (D15) Mean (percentage of alternation) / Y-maze (D15) %: tested D15; for Y-maze (D22) Mean (percentage of alternation) / Y-maze (D22) %: tested D22; for Y-maze (D29) Mean (percentage of alternation) / Y-maze (D29) %: tested D29; for Y-maze (D36) Mean (percentage of alternation) / Y-maze (D36) %: tested D36; for Y-maze (D43) Mean (percentage of alternation) / Y-maze (D43) %: tested D43; for Y-maze (D50) Mean (percentage of alternation) / Y-maze (D50) %: tested D50; for Y-maze (D57) Mean (percentage of alternation) / Y-maze (D57) %: tested D57; for Y-maze (D64) Mean (percentage of alternation) / Y-maze (D64) %: tested D64; for Y-maze (D71) Mean (percentage of alternation) / Y-maze (D71) %: tested D71; for Y-maze (D78) Mean (percentage of alternation) / Y-maze (D78) %: tested D78; for Y-maze (D85) Mean (percentage of alternation) / Y-maze (D85) %: tested D85; for Y-maze (D92) Mean (percentage of alternation) / Y-maze (D92) %: tested D92; for Y-maze (D99) Mean (percentage of alternation) / Y-maze (D99) %: tested D99; for Y-maze (D106) Mean (percentage of alternation) / Y-maze (D106) %: tested D106; for Y-maze (D113) Mean (percentage of alternation) / Y-maze (D113) %: tested D113; for Y-maze (D120) Mean (percentage of alternation) / Y-maze (D120) %: tested D120
Description: To investigate the potential of NX218 treatment to maintain cognitive restoration for a longer duration and to work as a 2nd line treatment when DPZ lose its activity: a long-term study (120 days) was performed in the Aβ25-35 mouse model of Tauopathies.
Mice were assigned to 6 treatment groups with 5-6 animals per group as described below.
From D01 until D120, mice of groups 1 and 2 were administered IP once a day (o.d.) with vehicle (water for injection).
Test compound NX218: • From D11 until D38, mice of group 3 were administered IP o.d. with NX218 at 2 mg/kg (mice were not treated with vehicle from D01 until D10). • From D01 until D120, mice of group 4 were administered IP o.d. with NX218 at 2 mg/kg.
DPZ rescued by test compound NX218: • From D01, mice of group 5 were administered PO by gavage o.d with DPZ at its active dose (1 mg/kg) until its effect disappears. Its efficacy disappeared on D36. DPZ was administered until D43 and then from D44, NX218 replaced DPZ until D78 via IP administration once a day at its active dose (2 mg/kg). • From D79 until D99: NX218 was administered via IP administration o.d. at a higher dose (4 mg/kg). • From D100 until D113 NX218 was administered via IP administration o.d. at a higher dose (8 mg/kg). • Administration of NX218 was stopped from D114 until animals were sacrificed.
Test compound NX218 in combination with DPZ: • From D01 until D120, mice of group 6 were co-administered with NX218 and DPZ at their respective subactive doses: • NX218: IP o.d., 0.1 mg/kg • DPZ: PO o.d., 0.25 mg/kg
All groups performed one behavioral test every week starting on D08 (7 days after Aβ25-35 peptide injection) to monitor the effects of the compounds:
Spontaneous alternation procedure in the Y-maze (YM, assessing spatial short-term/working memory as described in example 3) on D08, D15, D22, D29, D36, D43, D50, D57, D64, D71, D78, D85, D92, D99, D106, D113 and D120.

[1] = Group 3, transient treatment D11 to D38, 2 mg/kg IP
[2] = Group 3: NX218 2 mg/kg IP o.d. D11-D38 (transient), tested D08, before treatment start
[3] = Group 3: NX218 2 mg/kg IP o.d. D11-D38 (transient)
[4] = Group 4: NX218 2 mg/kg IP o.d. D01-D120, tested D08
[5] = Group 4: NX218 2 mg/kg IP o.d. D01-D120
[6] = Group 5: DPZ 1 mg/kg PO D01-D43, NX218 IP o.d. 2 mg/kg D44-D78, 4 mg/kg D79-D99, 8 mg/kg D100-D113, stopped from D114
[7] = Group 5: DPZ 1 mg/kg PO D01-D43, NX218 IP o.d. 2 mg/kg D44-D78, 4 mg/kg D79-D99, 8 mg/kg D100-D113
[8] = Group 5: DPZ 1 mg/kg PO D01-D43, NX218 IP o.d. 2 mg/kg D44-D78, 4 mg/kg D79-D99, 8 mg/kg from D100
[9] = Group 5: DPZ 1 mg/kg PO D01-D43, NX218 IP o.d. 2 mg/kg D44-D78, 4 mg/kg D79-D99
[10] = Group 5: DPZ 1 mg/kg PO D01-D43, NX218 IP o.d. 2 mg/kg D44-D78, 4 mg/kg from D79
[11] = Group 5: DPZ 1 mg/kg PO D01-D43 replaced by NX218 2 mg/kg IP o.d. D44-D78
[12] = Group 5: DPZ 1 mg/kg PO D01-D43 replaced by NX218 2 mg/kg IP o.d. from D44

N=C(N)NCCC[C@@H]1NC(=O)[C@H](CO)NC(=O)[C@@H](NC(=O)[C@H](CO)NC(=O)[C@H](CO)NC(=O)[C@H](Cc2c[nH]c3ccccc23)NC(=O)CNC(=O)[C@H](CO)NC(=O)[C@@H](N)Cc2c[nH]c3ccccc23)CSSC[C@@H](C(=O)NCC(=O)O)NC(=O)[C@H](CO)NC1=O [NX218, W-S-G-W-S-S-C-S-R-S-C-G] (H-WSGWSSCSRSCG-OH; disulfide 7-11; N-terminus and C-terminus assumed)
persistence of benefits without re-administration, in words [1]: maintained until D120 | recovery from memory alterations in YM, in words [1]: completely recovered | Y-maze (D08) Mean (percentage of alternation) [2]: 45.65% | Y-maze (D08) % [2]: 62% | Y-maze (D15) Mean (percentage of alternation) [3]: 56.48% | Y-maze (D15) % [3]: 73% | Y-maze (D22) Mean (percentage of alternation) [3]: 64.83% | Y-maze (D22) % [3]: 87% | Y-maze (D29) Mean (percentage of alternation) [3]: 76.38% | Y-maze (D29) % [3]: 99% | Y-maze (D36) Mean (percentage of alternation) [3]: 77.42% | Y-maze (D36) % [3]: 104% | Y-maze (D43) Mean (percentage of alternation) [3]: 69.88% | Y-maze (D43) % [3]: 94% | Y-maze (D50) Mean (percentage of alternation) [3]: 76.6% | Y-maze (D50) % [3]: 104% | Y-maze (D57) Mean (percentage of alternation) [3]: 76.38% | Y-maze (D57) % [3]: 99% | Y-maze (D64) Mean (percentage of alternation) [3]: 77.97% | Y-maze (D64) % [3]: 104% | Y-maze (D71) Mean (percentage of alternation) [3]: 74.52% | Y-maze (D71) % [3]: 99% | Y-maze (D78) Mean (percentage of alternation) [3]: 75.77% | Y-maze (D78) % [3]: 95% | Y-maze (D85) Mean (percentage of alternation) [3]: 76.07% | Y-maze (D85) % [3]: 97% | Y-maze (D92) Mean (percentage of alternation) [3]: 74.08% | Y-maze (D92) % [3]: 95% | Y-maze (D99) Mean (percentage of alternation) [3]: 78.35% | Y-maze (D99) % [3]: 101% | Y-maze (D106) Mean (percentage of alternation) [3]: 73.98% | Y-maze (D106) % [3]: 98% | Y-maze (D113) Mean (percentage of alternation) [3]: 74.33% | Y-maze (D113) % [3]: 97% | Y-maze (D120) Mean (percentage of alternation) [3]: 76.62% | Y-maze (D120) % [3]: 99% | Y-maze (D08) Mean (percentage of alternation) [4]: 71.18% | Y-maze (D08) % [4]: 96% | Y-maze (D15) Mean (percentage of alternation) [5]: 78.42% | Y-maze (D15) % [5]: 101% | Y-maze (D22) Mean (percentage of alternation) [5]: 73.88% | Y-maze (D22) % [5]: 99% | Y-maze (D29) Mean (percentage of alternation) [5]: 72.17% | Y-maze (D29) % [5]: 93% | Y-maze (D36) Mean (percentage of alternation) [5]: 75.48% | Y-maze (D36) % [5]: 101% | Y-maze (D43) Mean (percentage of alternation) [5]: 73.2% | Y-maze (D43) % [5]: 99% | Y-maze (D50) Mean (percentage of alternation) [5]: 76.9% | Y-maze (D50) % [5]: 105% | Y-maze (D57) Mean (percentage of alternation) [5]: 69.1% | Y-maze (D57) % [5]: 90% | Y-maze (D64) Mean (percentage of alternation) [5]: 70.92% | Y-maze (D64) % [5]: 94% | Y-maze (D71) Mean (percentage of alternation) [5]: 75.23% | Y-maze (D71) % [5]: 100% | Y-maze (D78) Mean (percentage of alternation) [5]: 77.82% | Y-maze (D78) % [5]: 98% | Y-maze (D85) Mean (percentage of alternation) [5]: 76.12% | Y-maze (D85) % [5]: 97% | Y-maze (D92) Mean (percentage of alternation) [5]: 76.28% | Y-maze (D92) % [5]: 97% | Y-maze (D99) Mean (percentage of alternation) [5]: 77.03% | Y-maze (D99) % [5]: 100% | Y-maze (D106) Mean (percentage of alternation) [5]: 73.2% | Y-maze (D106) % [5]: 97% | Y-maze (D113) Mean (percentage of alternation) [5]: 81.03% | Y-maze (D113) % [5]: 106% | Y-maze (D120) Mean (percentage of alternation) [5]: 76.28% | Y-maze (D120) % [5]: 99% | Y-maze (D120) Mean (percentage of alternation) [6]: 79.75% | Y-maze (D120) % [6]: 103% | Y-maze (D113) Mean (percentage of alternation) [7]: 77.43% | Y-maze (D113) % [7]: 101% | Y-maze (D106) Mean (percentage of alternation) [8]: 68.93% | Y-maze (D106) % [8]: 91% | Y-maze (D99) Mean (percentage of alternation) [9]: 60.47% | Y-maze (D99) % [9]: 78% | Y-maze (D85) Mean (percentage of alternation) [10]: 56.77% | Y-maze (D85) % [10]: 73% | Y-maze (D92) Mean (percentage of alternation) [10]: 63.35% | Y-maze (D92) % [10]: 81% | Y-maze (D78) Mean (percentage of alternation) [11]: 53.25% | Y-maze (D78) % [11]: 67% | Y-maze (D50) Mean (percentage of alternation) [12]: 55.08% | Y-maze (D50) % [12]: 75% | Y-maze (D57) Mean (percentage of alternation) [12]: 67.87% | Y-maze (D57) % [12]: 88% | Y-maze (D64) Mean (percentage of alternation) [12]: 77.07% | Y-maze (D64) % [12]: 103% | Y-maze (D71) Mean (percentage of alternation) [12]: 61.6% | Y-maze (D71) % [12]: 82% | long-term effect on memory (Y-maze), in words (NX218 2 mg/kg, Groups 3 and 4, 120-day follow up): full and sustained restoration without any efficacy loss
